Test results reported in publication PMC7521923.
These are yes or no findings as the source states them, for the method shown. In cells and extracts the contact can be indirect. Some binding calls cover weakened binding; strength is not graded here.

By UniProt entry, the sequences of proteins in these tests, tags left out. Residues count along the entry.
UniProt Q13467, residues 27-585: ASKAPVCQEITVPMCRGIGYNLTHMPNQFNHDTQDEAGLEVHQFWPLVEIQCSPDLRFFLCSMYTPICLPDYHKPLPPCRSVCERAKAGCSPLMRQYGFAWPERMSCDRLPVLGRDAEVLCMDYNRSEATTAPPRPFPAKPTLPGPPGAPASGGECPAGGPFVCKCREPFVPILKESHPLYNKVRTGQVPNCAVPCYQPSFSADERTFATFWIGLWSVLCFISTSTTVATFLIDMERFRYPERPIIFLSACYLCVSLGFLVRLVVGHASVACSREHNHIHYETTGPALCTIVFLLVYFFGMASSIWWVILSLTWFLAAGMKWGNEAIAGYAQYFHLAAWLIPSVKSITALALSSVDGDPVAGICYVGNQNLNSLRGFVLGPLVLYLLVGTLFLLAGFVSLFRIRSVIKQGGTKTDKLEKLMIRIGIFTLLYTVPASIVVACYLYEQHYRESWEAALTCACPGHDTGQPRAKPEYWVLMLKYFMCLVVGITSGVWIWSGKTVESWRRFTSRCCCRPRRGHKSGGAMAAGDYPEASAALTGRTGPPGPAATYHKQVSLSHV

Biological target: T1, USP8 (UniProt P40818)
T1 sequence: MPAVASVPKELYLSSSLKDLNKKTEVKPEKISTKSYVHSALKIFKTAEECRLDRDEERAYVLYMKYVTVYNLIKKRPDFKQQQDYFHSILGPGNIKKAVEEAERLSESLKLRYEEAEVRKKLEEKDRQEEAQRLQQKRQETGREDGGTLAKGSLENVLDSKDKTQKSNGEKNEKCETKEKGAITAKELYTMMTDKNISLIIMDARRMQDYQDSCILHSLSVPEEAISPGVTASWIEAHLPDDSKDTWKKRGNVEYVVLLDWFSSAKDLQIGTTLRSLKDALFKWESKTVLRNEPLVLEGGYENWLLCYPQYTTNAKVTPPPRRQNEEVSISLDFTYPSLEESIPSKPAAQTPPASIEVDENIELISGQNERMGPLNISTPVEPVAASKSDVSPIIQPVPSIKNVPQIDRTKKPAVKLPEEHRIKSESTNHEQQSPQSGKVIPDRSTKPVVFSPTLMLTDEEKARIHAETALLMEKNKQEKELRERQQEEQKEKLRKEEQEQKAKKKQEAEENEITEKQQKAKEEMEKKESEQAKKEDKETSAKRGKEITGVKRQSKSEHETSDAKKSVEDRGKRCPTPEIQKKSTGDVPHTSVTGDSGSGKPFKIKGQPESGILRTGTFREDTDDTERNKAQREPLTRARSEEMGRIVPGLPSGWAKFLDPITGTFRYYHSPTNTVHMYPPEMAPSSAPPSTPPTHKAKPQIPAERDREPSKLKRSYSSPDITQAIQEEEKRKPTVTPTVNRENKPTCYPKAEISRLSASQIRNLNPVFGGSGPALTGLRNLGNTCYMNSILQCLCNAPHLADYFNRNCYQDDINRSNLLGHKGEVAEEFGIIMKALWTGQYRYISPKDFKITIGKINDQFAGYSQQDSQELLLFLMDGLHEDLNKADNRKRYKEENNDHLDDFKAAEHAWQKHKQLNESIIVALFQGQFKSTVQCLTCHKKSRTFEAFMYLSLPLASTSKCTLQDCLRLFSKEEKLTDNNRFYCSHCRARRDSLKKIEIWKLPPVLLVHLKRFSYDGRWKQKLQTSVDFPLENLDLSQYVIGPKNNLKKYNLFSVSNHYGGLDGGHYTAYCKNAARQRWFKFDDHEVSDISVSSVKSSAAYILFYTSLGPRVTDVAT
Experiment: co-IP; both partners expressed in transfected HEK293T cells (FZD5-USP8 also in T79KO cells and with TMEM79 overexpressed; USP8-TMEM79 in FZD null cells); NP40 lysis buffer (50 mM Tris pH 7.5, 150 mM NaCl, 1 mM EDTA, 1% NP40, 10% glycerol, 10 mM NaF); antibody-conjugated agarose beads (anti-c-Myc, anti-HA, anti-Flag M2 or anti-V5) at 4°C overnight; five washes; immunoblot

binding: binds
Substance: FZD5 (transfected) (from UniProt Q13467 27-585) (receptor)
